Reference: the supplement of paper PMC7661543
Differences between knockout arms are mostly noise.

Tested on: SKBR3
Assay: relative cell number vs DMSO control (72 h) (% of DMSO); higher = less growth inhibition (more cells)
Procedure: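 QMAP-Seq: a pool of 5 breast cancer cell lines (ZR-75-1, SKBR3, HCC-38, MDA-MB-231, BT-20), each carrying 12 doxycycline-inducible Cas9 sgRNA perturbations (11 knockouts plus non-targeting sgNT), was treated with compounds for 72 h at four 10-fold doses (10 nM-10 uM or 1 nM-1 uM range). Barcodes were amplified and sequenced, and cell number was interpolated from 293T spike-in standard curves. The result is expressed as % of the median of DMSO wells. Two biological replicates.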

CNC(=O)c1cc(Oc2ccc(NC(=O)Nc3ccc(Cl)c(C(F)(F)F)c3)cc2)ccn1 [Sorafenib]
Details	relative cell number
sgRNA knockout: sgATF3, 10 nM	135
sgRNA knockout: sgATF3, 100 nM	141
sgRNA knockout: sgATF3, 1000 nM	144
sgRNA knockout: sgATF3, 10000 nM	51.1
sgRNA knockout: sgATF4, 10 nM	105
sgRNA knockout: sgATF4, 100 nM	116
sgRNA knockout: sgATF4, 1000 nM	121
sgRNA knockout: sgATF4, 10000 nM	37.6
sgRNA knockout: sgATF6, 10 nM	111
sgRNA knockout: sgATF6, 100 nM	107
sgRNA knockout: sgATF6, 1000 nM	130
sgRNA knockout: sgATF6, 10000 nM	38.7
sgRNA knockout: sgATG7, 10 nM	114
sgRNA knockout: sgATG7, 100 nM	115
sgRNA knockout: sgATG7, 1000 nM	102
sgRNA knockout: sgATG7, 10000 nM	44.8
sgRNA knockout: sgERN1, 10 nM	97.4
sgRNA knockout: sgERN1, 100 nM	128
sgRNA knockout: sgERN1, 1000 nM	113
sgRNA knockout: sgERN1, 10000 nM	44.2
sgRNA knockout: sgHSF1, 10 nM	98.4
sgRNA knockout: sgHSF1, 100 nM	117
sgRNA knockout: sgHSF1, 1000 nM	107
sgRNA knockout: sgHSF1, 10000 nM	43.1
sgRNA knockout: sgHSF2, 10 nM	98.4
sgRNA knockout: sgHSF2, 100 nM	120
sgRNA knockout: sgHSF2, 1000 nM	106
sgRNA knockout: sgHSF2, 10000 nM	37.1
sgRNA knockout: sgKEAP1, 10 nM	100
sgRNA knockout: sgKEAP1, 100 nM	107
sgRNA knockout: sgKEAP1, 1000 nM	109
sgRNA knockout: sgKEAP1, 10000 nM	40.7
sgRNA knockout: sgNFE2L2, 10 nM	102.2
sgRNA knockout: sgNFE2L2, 100 nM	126
sgRNA knockout: sgNFE2L2, 1000 nM	89.4
sgRNA knockout: sgNFE2L2, 10000 nM	34.9
sgRNA knockout: sgSLC35F2, 10 nM	94.3
sgRNA knockout: sgSLC35F2, 100 nM	114
sgRNA knockout: sgSLC35F2, 1000 nM	110
sgRNA knockout: sgSLC35F2, 10000 nM	49.6
sgRNA knockout: sgXBP1, 10 nM	106
sgRNA knockout: sgXBP1, 100 nM	113
sgRNA knockout: sgXBP1, 1000 nM	121
sgRNA knockout: sgXBP1, 10000 nM	43.6

CC(C)(C)c1ccc(S(=O)(=O)NCc2ccc(C(=O)Nc3cccnc3)cc2)cc1 [STF31]
Details	relative cell number
sgRNA knockout: sgATF3, 10 nM	119
sgRNA knockout: sgATF3, 100 nM	99
sgRNA knockout: sgATF3, 1000 nM	79.8
sgRNA knockout: sgATF3, 10000 nM	38.2
sgRNA knockout: sgATF4, 10 nM	92.5
sgRNA knockout: sgATF4, 100 nM	84.1
sgRNA knockout: sgATF4, 1000 nM	53.1
sgRNA knockout: sgATF4, 10000 nM	42.03
sgRNA knockout: sgATF6, 10 nM	95.5
sgRNA knockout: sgATF6, 100 nM	77.1
sgRNA knockout: sgATF6, 1000 nM	62.2
sgRNA knockout: sgATF6, 10000 nM	43.4
sgRNA knockout: sgATG7, 10 nM	122
sgRNA knockout: sgATG7, 100 nM	101
sgRNA knockout: sgATG7, 1000 nM	74.4
sgRNA knockout: sgATG7, 10000 nM	33.6
sgRNA knockout: sgERN1, 10 nM	136
sgRNA knockout: sgERN1, 100 nM	90.3
sgRNA knockout: sgERN1, 1000 nM	68.13
sgRNA knockout: sgERN1, 10000 nM	37.1
sgRNA knockout: sgHSF1, 10 nM	83.7
sgRNA knockout: sgHSF1, 100 nM	90.4
sgRNA knockout: sgHSF1, 1000 nM	61.9
sgRNA knockout: sgHSF1, 10000 nM	43.2
sgRNA knockout: sgHSF2, 10 nM	112
sgRNA knockout: sgHSF2, 100 nM	91
sgRNA knockout: sgHSF2, 1000 nM	63.6
sgRNA knockout: sgHSF2, 10000 nM	40.8
sgRNA knockout: sgKEAP1, 10 nM	95.4
sgRNA knockout: sgKEAP1, 100 nM	80.8
sgRNA knockout: sgKEAP1, 1000 nM	65
sgRNA knockout: sgKEAP1, 10000 nM	34.7
sgRNA knockout: sgNFE2L2, 10 nM	117
sgRNA knockout: sgNFE2L2, 100 nM	91.3
sgRNA knockout: sgNFE2L2, 1000 nM	65.3
sgRNA knockout: sgNFE2L2, 10000 nM	38.96
sgRNA knockout: sgSLC35F2, 10 nM	98.7
sgRNA knockout: sgSLC35F2, 100 nM	87.7
sgRNA knockout: sgSLC35F2, 1000 nM	65.6
sgRNA knockout: sgSLC35F2, 10000 nM	46
sgRNA knockout: sgXBP1, 10 nM	117
sgRNA knockout: sgXBP1, 100 nM	91.5
sgRNA knockout: sgXBP1, 1000 nM	61.57
sgRNA knockout: sgXBP1, 10000 nM	52.8

Cc1c(Cn2c(C)nc3c(C(=O)O)cc(N4CCOCC4)cc32)cccc1C(F)(F)F
Details	relative cell number
sgRNA knockout: sgATF3, 10 nM	103
sgRNA knockout: sgATF3, 100 nM	125
sgRNA knockout: sgATF3, 1000 nM	99.6
sgRNA knockout: sgATF3, 10000 nM	139
sgRNA knockout: sgATF4, 10 nM	99.5
sgRNA knockout: sgATF4, 100 nM	111.3
sgRNA knockout: sgATF4, 1000 nM	98
sgRNA knockout: sgATF4, 10000 nM	108
sgRNA knockout: sgATF6, 10 nM	109
sgRNA knockout: sgATF6, 100 nM	85.4
sgRNA knockout: sgATF6, 1000 nM	105
sgRNA knockout: sgATF6, 10000 nM	103
sgRNA knockout: sgATG7, 10 nM	94.6
sgRNA knockout: sgATG7, 100 nM	113
sgRNA knockout: sgATG7, 1000 nM	95.2
sgRNA knockout: sgATG7, 10000 nM	93.1
sgRNA knockout: sgERN1, 10 nM	123
sgRNA knockout: sgERN1, 100 nM	124
sgRNA knockout: sgERN1, 1000 nM	108
sgRNA knockout: sgERN1, 10000 nM	102
sgRNA knockout: sgHSF1, 10 nM	98.1
sgRNA knockout: sgHSF1, 100 nM	103.5
sgRNA knockout: sgHSF1, 1000 nM	95.1
sgRNA knockout: sgHSF1, 10000 nM	101
sgRNA knockout: sgHSF2, 10 nM	104
sgRNA knockout: sgHSF2, 100 nM	88.9
sgRNA knockout: sgHSF2, 1000 nM	90.9
sgRNA knockout: sgHSF2, 10000 nM	86.9
sgRNA knockout: sgKEAP1, 10 nM	108
sgRNA knockout: sgKEAP1, 100 nM	89.6
sgRNA knockout: sgKEAP1, 1000 nM	94.9
sgRNA knockout: sgKEAP1, 10000 nM	98.3
sgRNA knockout: sgNFE2L2, 10 nM	129
sgRNA knockout: sgNFE2L2, 100 nM	104
sgRNA knockout: sgNFE2L2, 1000 nM	106
sgRNA knockout: sgNFE2L2, 10000 nM	109
sgRNA knockout: sgSLC35F2, 10 nM	84.3
sgRNA knockout: sgSLC35F2, 100 nM	108
sgRNA knockout: sgSLC35F2, 1000 nM	117
sgRNA knockout: sgSLC35F2, 10000 nM	94
sgRNA knockout: sgXBP1, 10 nM	106
sgRNA knockout: sgXBP1, 100 nM	117
sgRNA knockout: sgXBP1, 1000 nM	90.9
sgRNA knockout: sgXBP1, 10000 nM	106
